Most values lie at the floor of the assay. Slopes are relative: functional sequences can read slightly below zero.
The substances below were run on Saccharomyces cerevisiae PS128 hsf1 delta, HSF1(1-493) fusion (assay: growth estimate (transactivation domain function in HSF1 fusion, heat-shock survival) (a.u. (slope of normalised read count over time)); higher = stronger growth at 37°C, i.e. more transactivation activity). Conditions: library: random library.
SGMLKSSDQVRPPGEDKSQA was tested, and the growth estimate was less than -0.25. Work on QAV yielded a growth estimate of less than -0.25. YTTGWGLPSKRPMGQQLTRD was tested, and the growth estimate was -0.231. For TMISIVDVKESIYY, the growth estimate was less than -0.25. PDRRGELCKPQKLSICRLRI was tested, and the growth estimate was less than -0.25. RFFISQRYSELAFGLKFRTS gave a growth estimate of less than -0.25. Work on RDFAVPTSGSYEHQ yielded a growth estimate of less than -0.25. With KHCSQ the growth estimate was less than -0.25. PLREPALFFLSDRLLPWVAR was tested, and the growth estimate was less than -0.25. In the case of RQLSQWGL, the growth estimate is reported as less than -0.25. For GCL, the growth estimate was less than -0.25. With GRFYQALLRTHILVWV the growth estimate was less than -0.25. In the case of RLSLSFNTRQLPGRLTIP, the growth estimate is reported as less than -0.25. AAIETSL was tested, and the growth estimate was less than -0.25. PTDENCRARRVYLLEMSPIR gave a growth estimate of less than -0.25. PTEYSLRNVRYQEKLSPV was tested, and the growth estimate was less than -0.25. For RDAV, the growth estimate was less than -0.25. AGKGFG was tested, and the growth estimate was less than -0.25. In the case of RTSIISPLLHVGGGSRSWQV, the growth estimate is reported as less than -0.25. RINDPAVNWVSGDLEDRAHA was tested, and the growth estimate was less than -0.25. Work on TTARSACAGT yielded a growth estimate of less than -0.25. With LKPYTGSALI the growth estimate was less than -0.25. For DCTVDPNTQARANASDWWQD, the growth estimate was less than -0.25. Substance SSGRCVRGGPTIIGNVEP has a growth estimate of less than -0.25. Substance CGPLPLSLGLQPVN has a growth estimate of less than -0.25. With RNIYWN the growth estimate was less than -0.25. With LKWGQVFNRENPP the growth estimate was less than -0.25. NRGFLRITLVSDVISPPG gave a growth estimate of less than -0.25. For PTQRPMPLLTIELKGLPLAP, the growth estimate was less than -0.25. VSGVQSCSKFGSPRSVRSFT was tested, and the growth estimate was less than -0.25. Work on LRRDLELMAERCPPLGFCPF yielded a growth estimate of less than -0.25. With GRGIGLFRTLNSRVFRLSSG the growth estimate was less than -0.25. In the case of SVGP, the growth estimate is reported as -0.231. In the case of WGTKHVSFAGLLAPMQSAGN, the growth estimate is reported as less than -0.25. Work on VKSGGVSSLSVLSKKERCQV yielded a growth estimate of less than -0.25. Work on KRKDPIVSERLLRR yielded a growth estimate of less than -0.25. CRQGYYGLYL was tested, and the growth estimate was -0.137. Work on HGPRRLALDVEYRGDLA yielded a growth estimate of less than -0.25. Work on ACPRPAEELSCVLKGTYRQ yielded a growth estimate of less than -0.25. In the case of ASLNCRRVCAGPGTFGNAVL, the growth estimate is reported as less than -0.25. SVWNSQSFVSKPTCKMGAT gave a growth estimate of less than -0.25. Substance SGGFQDHGGCSGYSRSKFNG has a growth estimate of less than -0.25. Substance RLEQLKRKAKP has a growth estimate of less than -0.25. AMRPCRSVDGPACTTASVSA was tested, and the growth estimate was less than -0.25. PRPRNGANQLKGMKSVVL gave a growth estimate of -0.245. GECSAKSGSVGGSQNPMALS showed a growth estimate of less than -0.25. Work on AVKWIDTPVPRATISV yielded a growth estimate of less than -0.25. NIRECPYEIKTCPVERVVPL showed a growth estimate of less than -0.25. In the case of QVRLSNATASGLG, the growth estimate is reported as less than -0.25. In the case of HVSTVGLRSSSRTGGGSAYA, the growth estimate is reported as less than -0.25. In the case of RRYIKGLSLSDRYGSSGPRS, the growth estimate is reported as -0.145. Work on SEAASHRGVAFSTDSSRVN yielded a growth estimate of less than -0.25. For TRCAIDVNAAVGRRHS, the growth estimate was less than -0.25. In the case of AWAD, the growth estimate is reported as less than -0.25. With ISPEGSGHQQLIGRAGPLDF the growth estimate was less than -0.25. In the case of ACFVKVGEDEPNAAA, the growth estimate is reported as less than -0.25. In the case of SVNLRQTDLRPILCEKRLCV, the growth estimate is reported as less than -0.25. In the case of NAVNNPLPFDSDHSVYAGPG, the growth estimate is reported as less than -0.25. PQSPSTWNFVRGP was tested, and the growth estimate was less than -0.25. LVSGLDCCHYEVRTHRGERL was tested, and the growth estimate was -0.194. VTGYNMC gave a growth estimate of less than -0.25. PMKKNRC showed a growth estimate of less than -0.25. In the case of YGVARVPLSRD, the growth estimate is reported as less than -0.25. For VNRGPREAESDASLGITGCL, the growth estimate was less than -0.25. Substance WSKSLNSNEPPIGLGLWP has a growth estimate of less than -0.25. With RNGC the growth estimate was less than -0.25. For GTVRGY, the growth estimate was less than -0.25. In the case of GGGYTRGQLFER, the growth estimate is reported as less than -0.25. CGCDSG gave a growth estimate of -0.138. In the case of GEPESQTSITAYERVNHAST, the growth estimate is reported as less than -0.25. KDRVASCI showed a growth estimate of less than -0.25. Substance LILSVA has a growth estimate of less than -0.25. NSGQLSHGITSECGRT showed a growth estimate of less than -0.25. RVLG was tested, and the growth estimate was less than -0.25. For SDEPRRITLDLPAPTYHEQL, the growth estimate was less than -0.25. Work on SMAKLQGAGASAVKVVLEEY yielded a growth estimate of less than -0.25. Work on LTIEL yielded a growth estimate of less than -0.25. DDKSVQVVVYSLRSGFGPAQ gave a growth estimate of -0.246. In the case of MDMVLLSE, the growth estimate is reported as less than -0.25. CLAALHQS gave a growth estimate of less than -0.25. Work on SPVIAMTVRVYMIFGRGAAG yielded a growth estimate of less than -0.25. RLGP was tested, and the growth estimate was less than -0.25. With TDQCSYALRTLA the growth estimate was less than -0.25. Work on LVMSHIRCLVSVMWWRSANC yielded a growth estimate of less than -0.25. HVQV was tested, and the growth estimate was less than -0.25. For LCPVFPG, the growth estimate was less than -0.25. Work on TPSNSPVHRASLRCCIHLGN yielded a growth estimate of less than -0.25. With RILLWCAGPGGL the growth estimate was less than -0.25. LRRKVILRLSAESFDFPTFY gave a growth estimate of less than -0.25. DEAALRPFEKYLRLRFKDNP was tested, and the growth estimate was less than -0.25. For GRVEIARGV, the growth estimate was less than -0.25. For VITRIFRWD, the growth estimate was less than -0.25. In the case of REQGGTNTCFRLEYGARA, the growth estimate is reported as less than -0.25. In the case of GLATLAGEL, the growth estimate is reported as less than -0.25. Work on EAIEWQPTDECSPKEVGGPD yielded a growth estimate of less than -0.25. Work on AKGGIMKSKSISRVLKRDLC yielded a growth estimate of less than -0.25. QKPDQQGR showed a growth estimate of less than -0.25. For SHYLSGVTS, the growth estimate was less than -0.25. Substance RGRIMCLENSKGKSQIQFTP has a growth estimate of less than -0.25. With AIVAPAAQVKYTP the growth estimate was less than -0.25. AKHWRLGISHAVCPAILLLV was tested, and the growth estimate was less than -0.25. With YVIKQL the growth estimate was less than -0.25. Substance GCGICA has a growth estimate of less than -0.25. GVKY was tested, and the growth estimate was less than -0.25. VPQTWRGPTVFML was tested, and the growth estimate was less than -0.25. Substance CVLKARLRVKMERTS has a growth estimate of less than -0.25. Substance ARSHGLLFVISSVTLGLTLD has a growth estimate of less than -0.25. With ARSVQHV the growth estimate was less than -0.25. Substance YSNVNVRVVSKDRHSMGASI has a growth estimate of less than -0.25. Work on AWSIAKLVPRGEALNAE yielded a growth estimate of less than -0.25. KEWCTIIGLSIRQGRLV gave a growth estimate of less than -0.25. LAKGGRCYCVGPSWLETCST was tested, and the growth estimate was less than -0.25. Substance LGYP has a growth estimate of less than -0.25. GIFDSSSNFESMVPQSEAGL showed a growth estimate of less than -0.25. Substance GVGVPSATGSL has a growth estimate of less than -0.25. For KTAIGVEDGTLRYGENWSRT, the growth estimate was less than -0.25. With VLNNIGGQVLADPPQRLRRG the growth estimate was less than -0.25. FANRPGTLTRVDGQVTTR gave a growth estimate of -0.228. Work on LLRRLPSCQ yielded a growth estimate of less than -0.25. In the case of TCGPEQKIESRAIGHRQPIL, the growth estimate is reported as less than -0.25. In the case of RMHTLPP, the growth estimate is reported as -0.245. Substance CWGPQGRMSTGGGSTVLYAT has a growth estimate of less than -0.25. Work on SGLKRFS yielded a growth estimate of less than -0.25. For VHTVVRLCRVEVGVAIPGGP, the growth estimate was less than -0.25. Substance RYHVAGFGYGPDEYVDEPWD has a growth estimate of less than -0.25. TLESKAYKASRLEYNTESGK gave a growth estimate of less than -0.25. For LGTAPTVDVIFVTTPNQPVT, the growth estimate was less than -0.25. For IGPCVACSTESDRVSTVPTY, the growth estimate was less than -0.25. Work on SHPGCRGIRSWLR yielded a growth estimate of -0.25. For NTRRPSSLAKKGTTRVLGHN, the growth estimate was less than -0.25. SQLAEGPFNRGRVAISSSRR showed a growth estimate of less than -0.25. In the case of GGLVR, the growth estimate is reported as less than -0.25. DGVVLSLTARHRVCGTT was tested, and the growth estimate was less than -0.25. AGSPGIIVQNGLAVRSLPWA showed a growth estimate of less than -0.25. With RQNTILLNVLFN the growth estimate was less than -0.25. SGVNN was tested, and the growth estimate was less than -0.25. In the case of LLGLQLIQTWESHESPSP, the growth estimate is reported as -0.231. For ETKL, the growth estimate was less than -0.25. STGVKRIAVLPRL showed a growth estimate of less than -0.25. In the case of GYFLFVPVVLSTSDSSLLTK, the growth estimate is reported as less than -0.25. With LYLTFWLHVLLGRSWRHIMM the growth estimate was -0.24. SVTGMLCTAGRAARSNRPSS showed a growth estimate of less than -0.25. ASVRSGEEI was tested, and the growth estimate was less than -0.25. Substance NLVRYNLDRLFEPIAGRPCI has a growth estimate of less than -0.25. Substance SLTCLKSTLQPLDSAHQFGS has a growth estimate of less than -0.25. Substance PGSAARFLGIPPLSGGLLRS has a growth estimate of less than -0.25. For RGADRGYH, the growth estimate was less than -0.25. CGTFCELMR showed a growth estimate of less than -0.25. DNLFILQNGYVYEV was tested, and the growth estimate was -0.243. SLSA was tested, and the growth estimate was -0.23. VSTVSRVCIRLSKR was tested, and the growth estimate was less than -0.25. Substance LRAIEGNSK has a growth estimate of less than -0.25. FRGWPREK showed a growth estimate of less than -0.25. VVKPNCRT was tested, and the growth estimate was less than -0.25. IISGDYCNCCYRLVWHKGHC was tested, and the growth estimate was less than -0.25. YGVYSGSRSSNR was tested, and the growth estimate was less than -0.25. YSDSATSLSGVEFVLVSHNA showed a growth estimate of less than -0.25. In the case of LSCP, the growth estimate is reported as -0.191. GGGRHSTA was tested, and the growth estimate was less than -0.25.

Reference: the supplement of paper PMC5949888
